From PMC5193325
No constants are given. Whether binding was seen depends on the method and setting. Binding seen in cells or lysates may run through a third protein. Some results given as binding are weak or reduced against the parent protein; the word gives no strength.

Sequences of proteins named here, by UniProt entry; tags and fusion partners are left off.
UniProt Q96P20: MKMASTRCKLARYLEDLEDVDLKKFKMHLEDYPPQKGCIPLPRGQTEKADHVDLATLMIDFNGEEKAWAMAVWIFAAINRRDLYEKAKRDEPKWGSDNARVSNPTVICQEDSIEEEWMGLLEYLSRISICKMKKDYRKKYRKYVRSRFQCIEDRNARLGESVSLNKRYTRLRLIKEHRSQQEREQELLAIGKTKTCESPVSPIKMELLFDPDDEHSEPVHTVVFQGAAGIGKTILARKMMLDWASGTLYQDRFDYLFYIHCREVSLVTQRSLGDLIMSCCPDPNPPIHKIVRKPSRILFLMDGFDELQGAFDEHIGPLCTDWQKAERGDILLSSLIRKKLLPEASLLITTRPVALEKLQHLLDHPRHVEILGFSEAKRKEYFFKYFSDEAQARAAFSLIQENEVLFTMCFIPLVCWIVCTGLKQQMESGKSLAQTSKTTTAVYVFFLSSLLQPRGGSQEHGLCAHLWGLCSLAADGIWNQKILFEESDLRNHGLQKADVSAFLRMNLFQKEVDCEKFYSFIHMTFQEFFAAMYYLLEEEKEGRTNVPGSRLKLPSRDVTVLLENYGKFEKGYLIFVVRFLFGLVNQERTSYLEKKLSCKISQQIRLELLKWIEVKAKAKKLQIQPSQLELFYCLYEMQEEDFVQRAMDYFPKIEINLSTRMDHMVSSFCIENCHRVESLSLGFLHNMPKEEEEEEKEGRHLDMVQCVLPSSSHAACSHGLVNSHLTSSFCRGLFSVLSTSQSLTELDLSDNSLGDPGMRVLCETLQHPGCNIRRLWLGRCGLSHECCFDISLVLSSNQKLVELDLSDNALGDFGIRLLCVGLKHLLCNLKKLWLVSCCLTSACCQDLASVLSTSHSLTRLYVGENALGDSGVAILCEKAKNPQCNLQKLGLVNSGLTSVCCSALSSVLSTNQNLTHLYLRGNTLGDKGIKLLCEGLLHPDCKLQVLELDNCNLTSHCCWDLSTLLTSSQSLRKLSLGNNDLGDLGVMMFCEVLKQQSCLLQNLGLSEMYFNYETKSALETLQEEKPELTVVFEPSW
UniProt P99999: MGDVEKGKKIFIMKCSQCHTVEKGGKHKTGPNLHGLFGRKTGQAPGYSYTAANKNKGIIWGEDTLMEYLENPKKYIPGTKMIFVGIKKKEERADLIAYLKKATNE

Columns and labels:
[1] = target: NLRP3 (NLR family, pyrin domain containing 3), endogenous (human (endogenous in THP-1)) (UniProt Q96P20); experiment: co-IP; NLRP3 immunoprecipitated from lysates of LPS-primed THP-1 macrophage cells, stimulated with ATP (5 mM, 1 h) or not; immunoblot for cytochrome c; lysis buffer 20 mM HEPES pH 7.4, 0.5% Triton X-100, 0.5% CHAPS, 10% glycerol; 4°C
[2] = target: NLRP3 (NLR family, pyrin domain containing 3), endogenous (human (endogenous in THP-1)) (UniProt Q96P20); experiment: co-IP; NLRP3 immunoprecipitated from the cytosolic fraction of THP-1 cells treated with LPS and with ATP or not; immunoblot for cytochrome c

“cytochrome c, endogenous (from UniProt P99999 1-105)” was tested, and the binding [1] was “binds” and the binding [2] was “binds”.
